Measured values: PubChem BioAssay AID1487 (National Center for Advancing Translational Sciences (NCATS), 2009)
“And” between values parts separate entries of the source, which are not always exact repeats. Equal entries are not always repeated. Some of the results follow. Further columns of the screen follow, without active or inactive calls. The list favours compounds with an active or inconclusive main result. Words in brackets tell the shape of the fitted curve; partial curves, single points and poor fits give uncertain potencies.

Test: qHTS Assay for Modulators of Lamin A Splicing
Conditions: HeLa LMNA splicing GFP/RFP minigene ratio, 48 h
How it was run: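 S3 HeLa cells stably expressing lamin A-EGFP splicing minigene plus DsRed2, 600 cells/well, 48 h compound exposure at 37C. Laser-scanning cytometry; analysed as GFP (500-530 nm)/RFP (575-640 nm) total intensity ratio; 0.5% DMSO vehicle.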

[1] = measured here: RFP viability control channel
[2] = measured here: GFP splicing reporter channel

O=C(NC1CCS(=O)(=O)C1)c1cn(-c2ccccc2)nc1-c1ccccc1 (stereo not drawn)
AC50 [1]: 11.2 µM [rising, partial curve]

Cn1c(SCc2nc(-c3ccc(Br)cc3)no2)nnc1-c1ccco1
AC50 [2]: 11.2 µM [rising, partial curve, poor fit]
AC50 [1]: 22.4 µM [rising, single point]

C=CCNC(=O)c1onc(CSc2ccccc2CC)c1C(=O)O
AC50 [2]: 3.98 µM [falling, single point]

CC(C)c1onc(C(=O)Nc2sc3c(c2C#N)CCC3)c1[N+](=O)[O-]
AC50 [2]: 2.24 µM [falling, partial curve, poor fit]

CC(C)(C)[C@]1(O)CCN2CC3c4ccccc4CCc4cccc(c43)[C@@H]2C1 (stereo partly drawn)
AC50 [2]: 14.1 µM [falling, single point]
AC50 [1]: 5.62 µM [falling, partial curve, poor fit] and 22.4 µM [falling, single point]

Cc1cc(C)c(C2C3=C(Nc4c2c(C)nn4-c2ccccn2)c2ccccc2C3=O)c(C)c1 (stereo not drawn)
AC50 [2]: 14.1 µM [rising, single point]
AC50 [1]: 15.8 µM [rising, partial curve]

Cc1ncc(CO)c(C=O)c1O
AC50 [2]: 1.26 µM [falling, single point]
AC50 [1]: 31.6 µM [falling, single point]

Nc1ncc(S(=O)(=O)Nc2ccc(F)cc2F)cn1
AC50 [1]: 0.708 µM [falling, full curve, poor fit]

Cc1ccc(Cn2c(NCCc3ccccc3)nc3c2c(=O)n(C)c(=O)n3C)cc1
AC50 [1]: 10 µM [rising, partial curve]

Cc1ccc(Cn2nnc3c(=O)[nH]c(C4CCN(S(=O)(=O)c5ccc(C)cc5)CC4)nc32)cc1
AC50 [2]: 35.5 µM [rising, single point]

COc1nccnc1NS(=O)(=O)c1ccc(NC(=S)NC(=O)/C=C/c2ccccc2)cc1
AC50 [1]: 31.6 µM [rising, single point]

CSc1ccc(Cl)c(C(=O)Nc2ccc(C)cn2)c1
AC50 [2]: 6.31 µM [falling, single point]
AC50 [1]: 6.31 µM [falling, single point]

C=CCn1cccc(/C=C/C(=O)c2ccc(C(C)(C)C)cc2)c1=S
AC50 [2]: 35.5 µM [falling, single point]
AC50 [1]: 35.5 µM [falling, single point]

O=C(NC1=NCCS1)c1ccccc1OCc1ccc(F)cc1
AC50 [2]: 35.5 µM [falling, single point]
AC50 [1]: 35.5 µM [falling, single point]

O=C(/C=C/c1ccc(Cl)cc1)Nc1ccc(N2CCOCC2)cc1
AC50 [2]: 0.00891 µM [falling, full curve, poor fit]
AC50 [1]: 0.00501 µM [falling, full curve, poor fit]

O=C(COCc1cc(-c2cccs2)on1)N1CCN(c2ccccc2)CC1
AC50 [2]: 0.0447 µM [falling, full curve]
AC50 [1]: 0.0282 µM [falling, full curve]

CC(C)OC(=O)CSc1nc(Cc2ccccc2)nc2ccccc12
AC50 [2]: 10 µM [falling, single point]
AC50 [1]: 10 µM [falling, single point]

Fc1ccc(NCc2nnc3n2CCCCC3)cc1Cl
AC50 [1]: 0.355 µM [falling, partial curve, poor fit]

COc1ccc(-c2cc(C(=O)NN)[nH]n2)cc1
AC50 [1]: 3.98 µM [rising, partial curve]

CCCCCCCCNC(=O)c1ccc(C)cc1
AC50 [2]: 3.55 µM [falling, partial curve, poor fit]

Cc1cc(C(=O)N/N=C/c2cccc([N+](=O)[O-])c2)c(C)n1-c1ccccc1
AC50 [2]: 0.02 µM [rising, full curve, poor fit]
AC50 [1]: 0.0282 µM [rising, full curve, poor fit]

COc1ccc2c(c1)c(=O)oc1cc(OCC(=O)N3CCCC(C)C3)ccc12 (stereo not drawn)
AC50 [1]: 12.6 µM [rising, partial curve]

Cc1ccc(NC(=S)Nc2ccc(Cl)c(Cl)c2)c(OC(F)F)c1
AC50 [1]: 20 µM [rising, single point]

CC(C)c1ccc(NC(=O)CCCN2C(=S)NC(C)(C)CC2C)cc1 (stereo not drawn)
AC50 [1]: 0.158 µM [rising, full curve, poor fit]

CSc1ccc(/C=C/C(=O)NC(=O)c2ccccc2O)cc1
AC50 [1]: 35.5 µM [rising, single point]

CC1CC(C)CN(CCCNC(=O)Cn2ncn3cccc3c2=O)C1 (stereo not drawn)
AC50 [1]: 0.0158 µM [falling, full curve, poor fit]

C/C(Cl)=C\Cn1c(O)c(N=NC(N)=S)c2ccccc21
AC50 [2]: 7.94 µM [falling, partial curve, poor fit]
AC50 [1]: 31.6 µM [falling, partial curve]

COc1cccc(CNC(=O)C2=C(C)C(=O)OC23CCN(C(C)=O)CC3)c1OC
AC50 [1]: 35.5 µM [falling, single point]

Cn1cc(CN2CCN(Cc3ccccc3)C(CCO)C2)c(-c2ccccc2)n1 (stereo not drawn)
AC50 [2]: 3.98 µM [rising, full curve, poor fit]
AC50 [1]: 4.47 µM [rising, partial curve]

Cc1c(C(=O)NCc2cccnc2)oc2ccc(S(=O)(=O)N3CCCCC3)cc12
AC50 [1]: 12.6 µM [rising, partial curve]

CC(=O)c1ccc(NC(=O)CN2C(=O)CN(C)C(=O)c3ccccc32)cc1
AC50 [2]: 20 µM [falling, partial curve, poor fit]
AC50 [1]: 2.51 µM [falling, partial curve, poor fit]

COc1cccc(N/C(SCc2ccccc2F)=C(/C#N)C(=O)NCc2cccs2)c1
AC50 [2]: 14.1 µM [rising, single point]

CCNS(=O)(=O)c1ccc(NC(=O)CC(C)c2ccccc2)cc1 (stereo not drawn)
AC50 [2]: 0.0891 µM [falling, full curve, poor fit]
AC50 [1]: 0.0794 µM [falling, full curve, poor fit]

Cc1nn(C)c(C(=O)Nc2ccc(Cl)c([N+](=O)[O-])c2)c1Cl
AC50 [2]: 20 µM [rising, single point]

CC1(C)C2CCC1(C)C(OCC[N+](C)(C)CC(=O)OC1CCCCC1)C2 (stereo not drawn)
AC50 [1]: 35.5 µM [rising, partial curve, poor fit]

Cc1ccc(-n2c(SCC(=O)NCc3ccco3)nc3c(sc4ccccc43)c2=O)cc1
AC50 [1]: 0.02 µM [falling, full curve, poor fit]

COc1ccccc1N/C=C(\C#N)c1nc2ccccc2[nH]1
AC50 [1]: 0.0794 µM [falling, full curve]

CCc1ccc2nc(N(CCN(CC)CC)C(=O)c3cccs3)sc2c1
AC50 [1]: 0.0316 µM [falling, full curve]

N#Cc1ccsc1NC(=O)CN(Cc1ccccc1)Cc1ccccc1
AC50 [2]: 35.5 µM [rising, single point]
AC50 [1]: 35.5 µM [rising, single point]

CCOc1ccccc1CNC(=O)CCc1c(C)nn(-c2ccc(N3CCCC3)nn2)c1C
AC50 [2]: 0.00316 µM [falling, full curve, poor fit]
AC50 [1]: 0.00316 µM [falling, full curve, poor fit]

COc1ccccc1CNC(=O)Cn1c(=O)nc(-c2ccccc2F)c2cc(Cl)ccc21
AC50 [2]: 14.1 µM [falling, single point]

CCSC1(SCC)N=C(N)C2(C#N)C(c3ccccc3)NC(C)=CC12C#N (stereo not drawn)
AC50 [2]: 0.0562 µM [falling, full curve, poor fit]

Cc1ccc(Cn2cccc(-c3nc4ccccc4s3)c2=O)cc1
AC50 [1]: 7.08 µM [rising, full curve, poor fit]

O=C(CCCCl)NC(=S)Nc1cc(C(F)(F)F)ccc1N1CCOCC1
AC50 [2]: 20 µM [rising, single point]
AC50 [1]: 35.5 µM [rising, single point]

CSc1nc2nccc(/C=C\c3ccccc3)n2n1
AC50 [2]: 31.6 µM [falling, single point]
AC50 [1]: 35.5 µM [falling, single point]

Cc1ccc(C(C)C)c(OCc2ccc(C(=O)N/N=C/c3ccc(O)cc3O)cc2)c1
AC50 [2]: 14.1 µM [rising, single point]
AC50 [1]: 12.6 µM [rising, partial curve]

Nc1nc2c(ncn2COC(CO)CO)c(=O)[nH]1
AC50 [2]: 10 µM [falling, partial curve, poor fit]
AC50 [1]: 3.16 µM [falling, single point]

Cn1nc(CC(=O)NCc2ccc(C(F)(F)F)cc2)c2ccccc2c1=O
AC50 [1]: 7.94 µM [rising, partial curve]

CC(=O)N1CCc2cc(S(=O)(=O)NCCC(=O)N3CCc4ccccc4C3)ccc21
AC50 [2]: 17.8 µM [rising, single point]
AC50 [1]: 22.4 µM [rising, single point]

O=C(CCCNS(=O)(=O)c1ccc(Br)cc1)N1CC[C@@]2(O)CCCC[C@H]2C1
AC50 [1]: 4.47 µM [rising, partial curve, poor fit]

CC12C(=O)OC(=O)C1(C)C1CCC2O1 (stereo not drawn)
AC50 [2]: 2.51 µM [falling, full curve]
AC50 [1]: 2.24 µM [falling, full curve]

CCOc1ccc(N2C(=O)CNC2=S)cc1
AC50 [2]: 10 µM [rising, partial curve, poor fit]

Cc1c(C(=O)Nc2cccc(C(F)(F)F)c2)sc2nc[nH]c(=O)c12
AC50 [2]: 0.355 µM [falling, full curve, poor fit]

Cc1cccc(N2CCN(C(=O)CSc3ccsc3[N+](=O)[O-])CC2C)c1 (stereo not drawn)
AC50 [2]: 35.5 µM [rising, single point]
AC50 [1]: 25.1 µM [rising, single point]
